No constants are given. Whether binding was seen depends on the method and setting. In cells and extracts the contact can be indirect. Some entries that bind do so weakly or less than the wild type. Where a sequence is shown, tags or fusion partners need not be part of it.

The chains behind the UniProt entries cited, without tags or fusion partners.
UniProt Q61312: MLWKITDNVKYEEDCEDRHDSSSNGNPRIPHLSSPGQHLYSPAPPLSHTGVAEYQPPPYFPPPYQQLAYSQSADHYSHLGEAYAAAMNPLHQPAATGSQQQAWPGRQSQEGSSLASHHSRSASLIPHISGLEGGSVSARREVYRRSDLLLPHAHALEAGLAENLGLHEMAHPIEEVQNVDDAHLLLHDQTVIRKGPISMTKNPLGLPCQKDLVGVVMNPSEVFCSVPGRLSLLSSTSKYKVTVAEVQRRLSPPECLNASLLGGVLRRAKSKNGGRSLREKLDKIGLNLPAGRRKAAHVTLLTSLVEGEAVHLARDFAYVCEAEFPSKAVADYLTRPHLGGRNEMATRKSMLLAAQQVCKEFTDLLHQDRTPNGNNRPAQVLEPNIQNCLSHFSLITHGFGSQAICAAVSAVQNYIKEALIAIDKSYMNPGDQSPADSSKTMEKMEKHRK

Three molecules from paper PMC7806742 can be followed below.

The target in assay [1] is T1, Histone demethylase JMJD2B/KDM4B (mouse (endogenous in TSC)) (UniProt Q91VY5).
T1 sequence: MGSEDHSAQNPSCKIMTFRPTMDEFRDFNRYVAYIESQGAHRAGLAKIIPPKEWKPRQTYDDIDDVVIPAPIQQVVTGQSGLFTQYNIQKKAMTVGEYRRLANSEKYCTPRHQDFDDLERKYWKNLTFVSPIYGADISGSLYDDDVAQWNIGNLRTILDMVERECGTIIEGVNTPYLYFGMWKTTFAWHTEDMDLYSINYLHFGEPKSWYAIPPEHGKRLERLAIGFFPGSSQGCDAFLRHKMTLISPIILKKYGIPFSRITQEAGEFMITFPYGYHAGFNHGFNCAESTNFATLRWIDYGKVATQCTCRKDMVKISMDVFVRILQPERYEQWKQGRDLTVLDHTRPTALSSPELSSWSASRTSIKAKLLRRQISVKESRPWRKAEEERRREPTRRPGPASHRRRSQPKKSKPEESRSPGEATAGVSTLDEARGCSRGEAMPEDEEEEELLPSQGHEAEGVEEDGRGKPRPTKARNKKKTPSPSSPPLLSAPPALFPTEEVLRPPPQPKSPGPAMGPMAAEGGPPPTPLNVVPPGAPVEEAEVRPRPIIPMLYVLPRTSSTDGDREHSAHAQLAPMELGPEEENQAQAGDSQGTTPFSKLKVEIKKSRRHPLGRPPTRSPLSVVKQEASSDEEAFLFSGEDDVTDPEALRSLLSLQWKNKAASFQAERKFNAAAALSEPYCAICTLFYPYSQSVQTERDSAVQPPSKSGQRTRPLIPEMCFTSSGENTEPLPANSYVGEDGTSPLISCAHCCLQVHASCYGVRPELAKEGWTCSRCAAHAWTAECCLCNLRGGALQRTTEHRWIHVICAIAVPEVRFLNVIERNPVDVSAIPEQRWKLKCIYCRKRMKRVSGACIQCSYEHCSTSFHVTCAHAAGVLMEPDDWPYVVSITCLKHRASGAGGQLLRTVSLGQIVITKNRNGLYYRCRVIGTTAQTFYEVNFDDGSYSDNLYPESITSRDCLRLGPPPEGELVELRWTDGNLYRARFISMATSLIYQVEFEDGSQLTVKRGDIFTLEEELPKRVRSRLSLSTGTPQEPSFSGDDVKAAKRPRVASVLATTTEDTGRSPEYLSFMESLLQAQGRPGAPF
Kind of assay: co-IP; IP with anti-JMJD2B antibody on Dynabeads Protein A/G from 1 mg DNase-treated TSC lysate (50 mM Tris-HCl pH 7.4, 150 mM NaCl, 1 mM EDTA, 1% NP-40), 4 °C overnight; Western blot with anti-LSD1, anti-TFAP2C or anti-EOMES; wild-type, Cas9 control and CRISPR Jmjd2b knockdown TSCs. On the technique in general: A western blot detects proteins with antibodies after separation by electrophoresis.

For assay [2], the target named is AP-2 family transcription factor TFAP2C (mouse (endogenous in TSC)) (UniProt Q61312). Kind of assay: co-IP; IP with anti-TFAP2C or anti-LSD1 antibody on Dynabeads Protein A/G from 1 mg DNase-treated TSC lysate (50 mM Tris-HCl pH 7.4, 150 mM NaCl, 1 mM EDTA, 1% NP-40), 4 °C overnight; Western blot for JMJD2B.

With “AP-2 family transcription factor TFAP2C (from UniProt Q61312 1-449)”, in assay [1], the binding result is “binds”.

B1: EOMES (protein, UniProt O54839 1-707)
chain: MQLGEQLLVSSVNLPGAHFYSLESARGGGGGGGGGGGGGGGSVSLLPGAAPSPQRLDLDKASKKFPGSLPCQAGSAEPAGAGAGAPAAMLSDADAGDTFGSTSAVAKPGPPDGRKGSPCAEEELPSAATAAATARYSMDSLSSERYYLPSPGPQGSELAAPCSLFQYPAAAGAAHGPVYPASNGARYPYGSMLPPGGFPAAVCPPARAQFGPAAGSGSGAGSSGGGAGGPGAYPYGQGSPLYGPYAGTSAAGSCGGLGGLGVPGSGFRAHVYLCNRPLWLKFHRHQTEMIITKQGRRMFPFLSFNINGLNPTAHYNVFVEVVLADPNHWRFQGGKWVTCGKADNNMQGNKMYVHPESPNTGSHWMRQEISFGKLKLTNNKGANNNNTQMIVLQSLHKYQPRLHIVEVTEDGVEDLNEPSKTQTFTFSETQFIAVTAYQNTDITQLKIDHNPFAKGFRDNYDSMYTASENDRLTPSPTDSPRSHQIVPGGRYGVQNFFPEPFVNTLPQARYYNGERTVPQTNGLLSPQQSEEVANPPQRWLVTPVQQPVTNKLDIGSYESEYTSSTLLPYGIKSLPLQTSHALGYYPDPTFPAMAGWGGRGAYQRKMAAGLPWTSRMSPPVFPEDQLAKEKVKEEISSSWIETPPSIKSLDSSDSGVYNSACKRKRLSPSTPSNGNSPPIKCEDINTEEYSKDTSKGMGAYYAFYTSP
With B1, in assay [1], the binding result was “no binding”.

B2: Histone demethylase JMJD2B/KDM4B (protein, UniProt Q91VY5 1-1086)
chain: MGSEDHSAQNPSCKIMTFRPTMDEFRDFNRYVAYIESQGAHRAGLAKIIPPKEWKPRQTYDDIDDVVIPAPIQQVVTGQSGLFTQYNIQKKAMTVGEYRRLANSEKYCTPRHQDFDDLERKYWKNLTFVSPIYGADISGSLYDDDVAQWNIGNLRTILDMVERECGTIIEGVNTPYLYFGMWKTTFAWHTEDMDLYSINYLHFGEPKSWYAIPPEHGKRLERLAIGFFPGSSQGCDAFLRHKMTLISPIILKKYGIPFSRITQEAGEFMITFPYGYHAGFNHGFNCAESTNFATLRWIDYGKVATQCTCRKDMVKISMDVFVRILQPERYEQWKQGRDLTVLDHTRPTALSSPELSSWSASRTSIKAKLLRRQISVKESRPWRKAEEERRREPTRRPGPASHRRRSQPKKSKPEESRSPGEATAGVSTLDEARGCSRGEAMPEDEEEEELLPSQGHEAEGVEEDGRGKPRPTKARNKKKTPSPSSPPLLSAPPALFPTEEVLRPPPQPKSPGPAMGPMAAEGGPPPTPLNVVPPGAPVEEAEVRPRPIIPMLYVLPRTSSTDGDREHSAHAQLAPMELGPEEENQAQAGDSQGTTPFSKLKVEIKKSRRHPLGRPPTRSPLSVVKQEASSDEEAFLFSGEDDVTDPEALRSLLSLQWKNKAASFQAERKFNAAAALSEPYCAICTLFYPYSQSVQTERDSAVQPPSKSGQRTRPLIPEMCFTSSGENTEPLPANSYVGEDGTSPLISCAHCCLQVHASCYGVRPELAKEGWTCSRCAAHAWTAECCLCNLRGGALQRTTEHRWIHVICAIAVPEVRFLNVIERNPVDVSAIPEQRWKLKCIYCRKRMKRVSGACIQCSYEHCSTSFHVTCAHAAGVLMEPDDWPYVVSITCLKHRASGAGGQLLRTVSLGQIVITKNRNGLYYRCRVIGTTAQTFYEVNFDDGSYSDNLYPESITSRDCLRLGPPPEGELVELRWTDGNLYRARFISMATSLIYQVEFEDGSQLTVKRGDIFTLEEELPKRVRSRLSLSTGTPQEPSFSGDDVKAAKRPRVASVLATTTEDTGRSPEYLSFMESLLQAQGRPGAPF
Consider B2, for which, in assay [2], the binding result was “binds”.
